The text below walks through data of patent US4446325A, “1,4-Dihydropyridine compounds” (priority 1981, dated 1984).

The data set can be described thus: in vivo. The conditions noted are these: mouse, oral, ddy male mice, mortality one week after administration. From the text:
[…]. Path. Pharmak., 177, 379 (1935)] from the mortality one week after administration.

One may read the LD50 as the dose at which mortality reaches 50%. Lower therefore signals a more toxic substance. In the case of `COC(=O)C1=C(C)NC(C)=C(C(=O)OC)C1c1ccccc1[N+](=O)[O-]` [Compound H, Dimethyl 2,6-dimethyl-4-(2-nitrophenyl)-1,4-dihydropyridine-3,5-dicarboxylate, reference compound], the LD50 at 168 h is 550 mg/kg.
